# This is one part of the list. Most entries show no effect beyond the scatter of the controls.
# The chains behind the UniProt entries cited, without tags or fusion partners. Where a name states a change or a piece, a line headed by the entry shows the natural chain unless it says otherwise.
# UniProt Q96GC6: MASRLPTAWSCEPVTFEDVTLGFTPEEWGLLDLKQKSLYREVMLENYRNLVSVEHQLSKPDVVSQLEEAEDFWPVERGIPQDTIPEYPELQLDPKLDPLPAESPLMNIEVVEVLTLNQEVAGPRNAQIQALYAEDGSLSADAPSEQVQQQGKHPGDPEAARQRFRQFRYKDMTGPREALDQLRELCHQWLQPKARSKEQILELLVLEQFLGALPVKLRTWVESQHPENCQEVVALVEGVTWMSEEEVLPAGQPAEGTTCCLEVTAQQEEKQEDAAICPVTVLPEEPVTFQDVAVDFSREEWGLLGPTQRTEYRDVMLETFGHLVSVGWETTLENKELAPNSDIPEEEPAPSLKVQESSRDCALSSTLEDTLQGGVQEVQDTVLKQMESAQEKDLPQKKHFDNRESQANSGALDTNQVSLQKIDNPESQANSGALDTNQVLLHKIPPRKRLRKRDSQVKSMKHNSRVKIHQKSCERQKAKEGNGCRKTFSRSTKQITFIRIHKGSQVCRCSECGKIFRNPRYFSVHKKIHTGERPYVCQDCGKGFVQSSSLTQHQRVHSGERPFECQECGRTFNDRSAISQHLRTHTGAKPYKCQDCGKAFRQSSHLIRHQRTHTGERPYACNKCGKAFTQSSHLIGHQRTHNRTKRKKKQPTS
# UniProt Q96J92: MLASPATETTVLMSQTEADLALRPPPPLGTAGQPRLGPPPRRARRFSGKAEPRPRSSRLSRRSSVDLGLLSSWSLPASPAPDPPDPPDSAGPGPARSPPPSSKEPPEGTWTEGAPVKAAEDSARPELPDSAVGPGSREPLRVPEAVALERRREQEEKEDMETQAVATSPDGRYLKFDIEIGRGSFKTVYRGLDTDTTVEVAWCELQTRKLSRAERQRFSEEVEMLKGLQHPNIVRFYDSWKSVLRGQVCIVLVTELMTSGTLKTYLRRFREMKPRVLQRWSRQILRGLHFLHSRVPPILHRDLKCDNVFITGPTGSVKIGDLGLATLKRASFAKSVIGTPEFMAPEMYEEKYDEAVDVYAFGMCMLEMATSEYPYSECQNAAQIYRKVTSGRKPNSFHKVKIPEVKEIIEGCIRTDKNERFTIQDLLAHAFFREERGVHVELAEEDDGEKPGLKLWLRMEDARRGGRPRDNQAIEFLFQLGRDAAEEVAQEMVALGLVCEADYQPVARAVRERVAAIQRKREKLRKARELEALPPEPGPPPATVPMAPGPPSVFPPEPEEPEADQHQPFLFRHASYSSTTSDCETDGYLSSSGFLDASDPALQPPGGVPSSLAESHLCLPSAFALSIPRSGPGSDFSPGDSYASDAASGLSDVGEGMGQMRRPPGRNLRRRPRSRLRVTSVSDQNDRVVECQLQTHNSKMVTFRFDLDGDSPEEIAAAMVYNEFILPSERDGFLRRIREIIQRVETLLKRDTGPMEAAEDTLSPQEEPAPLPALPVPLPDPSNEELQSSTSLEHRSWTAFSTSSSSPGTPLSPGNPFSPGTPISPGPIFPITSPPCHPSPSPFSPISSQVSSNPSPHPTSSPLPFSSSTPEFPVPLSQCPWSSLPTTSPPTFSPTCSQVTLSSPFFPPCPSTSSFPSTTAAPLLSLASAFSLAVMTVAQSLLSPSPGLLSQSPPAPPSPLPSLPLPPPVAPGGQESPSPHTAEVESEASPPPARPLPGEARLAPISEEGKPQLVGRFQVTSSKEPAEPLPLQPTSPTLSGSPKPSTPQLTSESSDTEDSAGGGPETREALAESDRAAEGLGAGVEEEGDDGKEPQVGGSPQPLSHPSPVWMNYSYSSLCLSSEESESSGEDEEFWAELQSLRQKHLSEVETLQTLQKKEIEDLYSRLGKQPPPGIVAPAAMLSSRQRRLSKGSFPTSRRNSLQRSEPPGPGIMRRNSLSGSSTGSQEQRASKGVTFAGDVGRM
# UniProt Q96HR3: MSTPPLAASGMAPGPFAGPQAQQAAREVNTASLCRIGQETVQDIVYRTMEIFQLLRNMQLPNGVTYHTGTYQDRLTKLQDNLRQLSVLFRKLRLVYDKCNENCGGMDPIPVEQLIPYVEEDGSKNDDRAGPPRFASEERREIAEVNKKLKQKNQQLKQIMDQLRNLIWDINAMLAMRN
# UniProt Q96PE7: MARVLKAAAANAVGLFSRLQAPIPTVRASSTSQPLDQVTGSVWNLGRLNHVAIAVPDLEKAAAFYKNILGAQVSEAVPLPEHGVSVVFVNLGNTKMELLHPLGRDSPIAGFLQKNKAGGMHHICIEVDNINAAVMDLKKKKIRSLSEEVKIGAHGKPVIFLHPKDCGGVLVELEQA
# UniProt Q96I59: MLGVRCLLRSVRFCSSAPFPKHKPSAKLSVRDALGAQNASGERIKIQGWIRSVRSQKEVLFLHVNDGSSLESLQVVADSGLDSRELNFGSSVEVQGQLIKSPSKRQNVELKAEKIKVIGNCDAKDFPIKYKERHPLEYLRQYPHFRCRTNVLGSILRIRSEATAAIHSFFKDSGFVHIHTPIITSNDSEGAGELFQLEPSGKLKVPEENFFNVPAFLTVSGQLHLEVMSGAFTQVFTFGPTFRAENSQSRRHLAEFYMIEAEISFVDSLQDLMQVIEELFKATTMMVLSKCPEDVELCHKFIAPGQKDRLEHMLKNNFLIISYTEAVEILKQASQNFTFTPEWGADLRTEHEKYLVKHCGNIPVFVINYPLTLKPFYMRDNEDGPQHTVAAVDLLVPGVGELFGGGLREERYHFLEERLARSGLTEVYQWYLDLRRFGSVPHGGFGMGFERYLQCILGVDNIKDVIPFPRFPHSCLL
# UniProt Q96LA8, whole entry, looked up: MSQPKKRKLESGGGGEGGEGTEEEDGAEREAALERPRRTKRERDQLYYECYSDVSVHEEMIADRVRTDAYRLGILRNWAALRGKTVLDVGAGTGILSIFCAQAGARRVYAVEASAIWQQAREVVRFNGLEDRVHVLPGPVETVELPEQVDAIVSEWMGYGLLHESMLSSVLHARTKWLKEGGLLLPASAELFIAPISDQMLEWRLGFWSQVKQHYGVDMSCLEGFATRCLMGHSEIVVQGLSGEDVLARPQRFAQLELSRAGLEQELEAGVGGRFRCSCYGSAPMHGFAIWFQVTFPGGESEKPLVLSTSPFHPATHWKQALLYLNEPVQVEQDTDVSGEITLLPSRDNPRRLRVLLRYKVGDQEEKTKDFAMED
# UniProt Q96Q11: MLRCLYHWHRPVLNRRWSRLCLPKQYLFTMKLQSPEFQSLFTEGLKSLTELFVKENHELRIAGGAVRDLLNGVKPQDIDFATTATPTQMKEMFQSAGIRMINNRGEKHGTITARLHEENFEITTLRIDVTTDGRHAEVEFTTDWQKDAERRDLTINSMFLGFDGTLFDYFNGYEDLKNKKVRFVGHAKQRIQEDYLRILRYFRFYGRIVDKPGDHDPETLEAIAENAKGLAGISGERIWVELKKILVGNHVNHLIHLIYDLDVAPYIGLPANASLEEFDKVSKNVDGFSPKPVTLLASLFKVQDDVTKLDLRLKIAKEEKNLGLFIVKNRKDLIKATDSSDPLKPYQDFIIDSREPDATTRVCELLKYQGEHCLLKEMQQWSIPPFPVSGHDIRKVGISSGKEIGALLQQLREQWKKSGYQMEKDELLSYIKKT
# UniProt Q96P16: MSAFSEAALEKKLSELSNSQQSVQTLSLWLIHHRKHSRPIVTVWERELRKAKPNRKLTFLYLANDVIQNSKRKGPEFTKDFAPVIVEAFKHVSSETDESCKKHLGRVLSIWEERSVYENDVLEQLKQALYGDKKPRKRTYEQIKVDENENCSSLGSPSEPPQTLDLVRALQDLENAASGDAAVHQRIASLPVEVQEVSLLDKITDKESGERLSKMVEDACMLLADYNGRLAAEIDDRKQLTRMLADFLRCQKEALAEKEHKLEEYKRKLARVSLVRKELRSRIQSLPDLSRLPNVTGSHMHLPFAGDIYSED
# UniProt Q96JS3: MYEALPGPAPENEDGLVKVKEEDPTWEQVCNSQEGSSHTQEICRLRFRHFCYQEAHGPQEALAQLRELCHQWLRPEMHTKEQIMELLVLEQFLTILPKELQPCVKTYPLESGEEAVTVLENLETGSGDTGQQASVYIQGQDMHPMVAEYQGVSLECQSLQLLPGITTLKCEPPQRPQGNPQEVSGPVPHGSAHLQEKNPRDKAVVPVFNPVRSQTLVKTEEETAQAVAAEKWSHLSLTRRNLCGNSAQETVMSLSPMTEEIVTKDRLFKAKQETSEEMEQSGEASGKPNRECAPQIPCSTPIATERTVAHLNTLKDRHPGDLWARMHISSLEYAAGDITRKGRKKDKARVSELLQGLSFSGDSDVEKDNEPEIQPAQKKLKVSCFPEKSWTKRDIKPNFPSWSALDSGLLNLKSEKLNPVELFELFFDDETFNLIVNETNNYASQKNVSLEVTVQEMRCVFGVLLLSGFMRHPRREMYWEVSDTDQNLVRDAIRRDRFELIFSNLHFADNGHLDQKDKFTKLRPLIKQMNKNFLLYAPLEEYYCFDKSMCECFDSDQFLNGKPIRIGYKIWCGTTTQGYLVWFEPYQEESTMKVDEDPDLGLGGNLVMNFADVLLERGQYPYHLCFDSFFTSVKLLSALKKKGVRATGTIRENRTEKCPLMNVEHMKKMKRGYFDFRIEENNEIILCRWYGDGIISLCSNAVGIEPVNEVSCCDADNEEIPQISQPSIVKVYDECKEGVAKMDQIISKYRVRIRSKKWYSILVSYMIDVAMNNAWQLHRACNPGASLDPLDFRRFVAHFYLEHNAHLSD
# UniProt Q96MW5: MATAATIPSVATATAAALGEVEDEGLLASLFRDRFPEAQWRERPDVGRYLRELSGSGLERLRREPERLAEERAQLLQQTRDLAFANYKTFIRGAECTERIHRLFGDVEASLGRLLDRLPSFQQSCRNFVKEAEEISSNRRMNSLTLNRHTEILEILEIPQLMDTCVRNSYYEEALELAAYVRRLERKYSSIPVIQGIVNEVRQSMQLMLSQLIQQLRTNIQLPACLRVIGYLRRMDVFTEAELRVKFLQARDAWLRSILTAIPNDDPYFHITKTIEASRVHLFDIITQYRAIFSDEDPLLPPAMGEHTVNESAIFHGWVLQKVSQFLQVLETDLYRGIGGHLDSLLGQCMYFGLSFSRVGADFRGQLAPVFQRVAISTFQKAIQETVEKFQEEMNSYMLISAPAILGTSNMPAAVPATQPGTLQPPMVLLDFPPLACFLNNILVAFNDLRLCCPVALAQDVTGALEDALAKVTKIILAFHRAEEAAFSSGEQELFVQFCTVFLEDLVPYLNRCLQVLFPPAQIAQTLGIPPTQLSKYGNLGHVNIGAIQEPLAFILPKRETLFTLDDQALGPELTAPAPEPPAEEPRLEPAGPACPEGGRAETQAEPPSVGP
# UniProt Q96HR8: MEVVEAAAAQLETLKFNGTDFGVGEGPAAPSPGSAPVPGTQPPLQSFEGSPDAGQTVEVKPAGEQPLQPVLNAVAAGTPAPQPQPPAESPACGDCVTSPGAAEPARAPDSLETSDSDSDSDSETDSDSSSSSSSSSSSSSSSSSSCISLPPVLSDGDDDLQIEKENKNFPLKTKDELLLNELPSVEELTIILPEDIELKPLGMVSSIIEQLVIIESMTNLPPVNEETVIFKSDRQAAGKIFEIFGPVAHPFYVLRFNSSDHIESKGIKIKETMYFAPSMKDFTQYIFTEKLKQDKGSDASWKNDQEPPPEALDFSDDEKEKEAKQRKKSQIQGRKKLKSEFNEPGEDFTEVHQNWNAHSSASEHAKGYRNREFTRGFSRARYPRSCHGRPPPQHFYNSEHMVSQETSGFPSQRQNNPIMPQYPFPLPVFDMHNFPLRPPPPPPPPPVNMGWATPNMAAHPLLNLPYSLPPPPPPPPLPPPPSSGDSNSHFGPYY
# UniProt Q96G23: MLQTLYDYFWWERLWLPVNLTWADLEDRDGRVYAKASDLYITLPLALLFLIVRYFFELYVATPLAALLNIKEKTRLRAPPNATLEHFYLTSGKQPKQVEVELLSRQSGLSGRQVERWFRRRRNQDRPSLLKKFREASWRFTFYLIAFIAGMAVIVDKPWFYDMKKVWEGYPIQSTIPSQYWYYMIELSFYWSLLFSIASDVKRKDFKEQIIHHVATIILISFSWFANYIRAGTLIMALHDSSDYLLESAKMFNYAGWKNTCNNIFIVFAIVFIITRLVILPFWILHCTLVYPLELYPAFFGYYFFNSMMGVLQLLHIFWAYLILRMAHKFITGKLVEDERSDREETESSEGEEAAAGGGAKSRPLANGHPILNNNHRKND
# UniProt Q96I99: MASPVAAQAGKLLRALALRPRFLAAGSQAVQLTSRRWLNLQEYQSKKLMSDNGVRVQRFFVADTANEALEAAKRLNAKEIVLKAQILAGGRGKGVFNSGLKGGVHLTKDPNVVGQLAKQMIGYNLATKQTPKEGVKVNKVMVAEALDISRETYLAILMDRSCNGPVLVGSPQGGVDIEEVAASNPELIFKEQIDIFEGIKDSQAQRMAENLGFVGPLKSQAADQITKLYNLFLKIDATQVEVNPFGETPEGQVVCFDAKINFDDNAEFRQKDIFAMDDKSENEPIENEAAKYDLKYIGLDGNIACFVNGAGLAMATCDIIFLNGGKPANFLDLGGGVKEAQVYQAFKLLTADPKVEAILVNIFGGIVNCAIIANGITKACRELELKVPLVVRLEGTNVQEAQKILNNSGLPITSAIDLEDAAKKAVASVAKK
# Compound: Cc1nc(Nc2ncc(C(=O)Nc3c(C)cccc3Cl)s2)cc(N2CCN(CCO)CC2)n1 [dasatinib]
# Assay: log2 fold change of tryptic peptide abundance, ligand vs vehicle (limited proteolysis) (log2 ratio); higher = more trypsin-susceptible (destabilized)
# Details: ligand concentration: 5 uM; sample: K562 cleared lysate
row,Target,log2 fold change
1,"MED15 (peptide sequence: QWQYDANPFLQSVHR, peptide start residue: 740) (UniProt Q96RN5)",-0.574
2,"UniProt Q96GC6 (peptide sequence: KTFSRSTK, peptide start residue: 486)",-0.0367
3,"WNK4 (peptide sequence: YLKFDIEIGR, peptide start residue: 173) (UniProt Q96J92)",-0.737
4,"MED30 (peptide sequence: EIAEVNKK, peptide start residue: 141) (UniProt Q96HR3)",0.0376
5,"RBM14 (peptide sequence: AQPSVSLGAPYR, peptide start residue: 275) (UniProt Q96PK6)",-0.137
6,"UniProt Q96RK0 (peptide sequence: VRPPPLKK, peptide start residue: 1333)",-0.433
7,"UniProt Q96NC0 (peptide sequence: RFEVNKK, peptide start residue: 125)",0.196
8,"MCEE (peptide sequence: IGAHGKPVIFLHPK, peptide start residue: 151) (UniProt Q96PE7)",-0.0749
9,"NARS2 (peptide sequence: FGSVPHGGFGMGFER, peptide start residue: 437) (UniProt Q96I59)",-0.377
10,"CRAMP1 (peptide sequence: KDPPSAVGSGNAGGSGPR, peptide start residue: 96) (UniProt Q96RY5)",0.383
11,"UniProt Q96GD4 (peptide sequence: GKFGNVYLAR, peptide start residue: 142)",-0.269
12,"PRMT6 (peptide sequence: EAALERPR, peptide start residue: 30) (UniProt Q96LA8)",0.208
13,"TRNT1 (peptide sequence: SGYQMEKDELLSYIK, peptide start residue: 418) (UniProt Q96Q11)",-0.855
14,"RPRD1A (peptide sequence: HVSSETDESCKK, peptide start residue: 91) (UniProt Q96P16)",0.623
15,"UniProt Q96JS3 (peptide sequence: MHISSLEYAAGDITR, peptide start residue: 326)",-0.18
16,"TONSL (peptide sequence: ELQLCSR, peptide start residue: 1336) (UniProt Q96HA7)",-0.214
17,"COG8 (peptide sequence: GQLAPVFQR, peptide start residue: 365) (UniProt Q96MW5)",0.186
18,"UniProt Q96N21 (peptide sequence: APQTSSQR, peptide start residue: 499)",-0.5
19,"NAF1 (peptide sequence: NDQEPPPEALDFSDDEKEKEAK, peptide start residue: 303) (UniProt Q96HR8)",-0.649
20,"ZNF48 (peptide sequence: AATAATQGPK, peptide start residue: 260) (UniProt Q96MX3)",-0.383
21,"SEC22A (peptide sequence: INLSDMQTEIK, peptide start residue: 136) (UniProt Q96IW7)",-0.202
22,"UniProt Q96G23 (peptide sequence: SRPLANGHPILNNNHR, peptide start residue: 362)",-0.0347
23,"SUCLG2 (peptide sequence: FFVADTANEALEAAKR, peptide start residue: 59) (UniProt Q96I99)",0.309
24,"AHCYL2 (peptide sequence: RSDPHHQHQR, peptide start residue: 88) (UniProt Q96HN2)",-0.53
25,"NGLY1 (peptide sequence: ISGSVAWR, peptide start residue: 459) (UniProt Q96IV0)",-0.0808
26,"TGS1 (peptide sequence: KLYNLGLK, peptide start residue: 37) (UniProt Q96RS0)",-0.0904
27,"VPS13A (peptide sequence: ALVGGAVGGLAGAASK, peptide start residue: 2908) (UniProt Q96RL7)",0.113

# Shown bar-delimited: entries from further up.
row | Target | log2 fold change
21 | SEC22A (peptide sequence: INLSDMQTEIK, peptide start residue: 136) (UniProt Q96IW7) | -0.202
22 | UniProt Q96G23 (peptide sequence: SRPLANGHPILNNNHR, peptide start residue: 362) | -0.0347
23 | SUCLG2 (peptide sequence: FFVADTANEALEAAKR, peptide start residue: 59) (UniProt Q96I99) | 0.309
24 | AHCYL2 (peptide sequence: RSDPHHQHQR, peptide start residue: 88) (UniProt Q96HN2) | -0.53
25 | NGLY1 (peptide sequence: ISGSVAWR, peptide start residue: 459) (UniProt Q96IV0) | -0.0808

# Source: the supplement of paper PMC12819154, “High-throughput peptide-centric local stability assay extends protein–ligand identification to membrane proteins, tissues and bacteria” (Nature Structural & Molecular Biology, 2025)
